Primary screen of a compound library

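Growth of Mycobacterium tuberculosis over 3 days (7H9 medium with glucose and tyloxapol); the read-out is not stated. Compounds at 50 µM. The record gives no direction; compounds that gave an IC50 in retests scored well above the rest, so higher reads as more growth inhibition. About 69,000 compounds were tested under these conditions; 1.1% (about 760) showed 50% or more at least once.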

Values are the deposited “Percent Effect”, in %.
The controls that fix the scale are not given in the record; negative values are as filed.
Compounds were drawn at random from those tested, without regard to their results.
Two or more numbers in one place are separate tests of the same structure; such repeats can differ widely.

{"compound": "Nc1ncnc2nc(C3CCN(C(=O)Cc4ccc(F)cc4)C3)ccc12", "stereo": "stereo not given", "effect": -23.75}
{"compound": "Cc1cc(N2CCC3(CC2)C(C(=O)O)CC(=O)N3C)nc2ccccc12", "stereo": "stereo not given", "effect": -25.2}
{"compound": "COCC(NC(=O)c1cccnc1)c1cccc(C(F)(F)F)c1", "stereo": "stereo not given", "effect": 16.42}
{"compound": "Cc1ccc(CNC(=O)CCSCc2csc(C)n2)cn1", "effect": -3.907}
{"compound": "CCC1c2ccsc2CCN1C(=O)NCCc1ccccn1", "stereo": "stereo not given", "effect": 3.299}
{"compound": "NC(=O)CCCNC(=O)c1cc(Br)c2c(c1)OCCO2", "effect": -9.468}
{"compound": "CC(C)n1ccc(CN2CCOC(CNc3cccnn3)C2)n1", "stereo": "stereo not given", "effect": 20.31}
{"compound": "CCN1CCOCC2(C1)CN(C(=O)c1c(C)noc1C)CCO2", "stereo": "stereo not given", "effect": 23.64}
{"compound": "[H][C@@]12C[C@@H](Oc3cncnc3)CN1CCN(C(=O)c1ccncc1)C2", "effect": "9.647 and -1.501"}
{"compound": "CC1CN(C)c2ccccc2CN1C(=O)c1ccoc1", "stereo": "stereo not given", "effect": 6.21}
{"compound": "CCOc1ccc(C(=O)N2CCCC(n3nc(C)nc3C)C2)cc1", "stereo": "stereo not given", "effect": 0.2788}
{"compound": "Cc1nc(C2CCCN2CCC(=O)N2CCc3ccccc32)no1", "stereo": "stereo not given", "effect": "5.062 and -4.579"}
{"compound": "O=C(O)C(F)(F)F.[H][C@@]12COC[C@]1([H])[C@@H](OCC(=O)N(C)C)CN2Cc1cccc(C#N)c1", "effect": "-11.89 and -30.5"}
{"compound": "Cc1nnc(CNC(=O)[C@@H]2C[C@H](NC(=O)C(C)(C)C)CN2C)[nH]1", "effect": "-7.049 and 1.022"}
{"compound": "Cc1ccc(S(N)(=O)=O)cc1C(=O)N1CCc2c(ncnc2N(C)C)C1", "effect": -13.94}
{"compound": "c1cnc2c(C3CCN(Cc4ccsc4)CC3)n[nH]c2n1", "effect": 3.52}
{"compound": "CCC(=O)N1CCC2(CC1)C(=O)N(C)CCN2Cc1csc(C)n1.O=C(O)C(F)(F)F", "effect": 18.06}
{"compound": "[H][C@]12CC[C@]([H])(CN(Cc3ncc[nH]3)C1)N(Cc1c(C)noc1C)C2=O", "effect": 24.38}
{"compound": "CC(C)Oc1ncccc1CNC(=O)N1CCOCC1", "effect": "-19.1 and -6.318"}
{"compound": "O=C1CCc2cc(-c3csc(CCN4CCOC4=O)n3)c(F)cc2N1", "effect": 5.341}
{"compound": "Cc1n[nH]c(C)c1C1COCCN1C(=O)c1n[nH]c2ccccc12", "stereo": "stereo not given", "effect": -16.07}
{"compound": "CCn1nnnc1-c1cccc(NC(=O)CCn2cc(C)cn2)c1", "effect": -18.94}
{"compound": "Cc1oc(C)c(C(=O)NCc2ccccc2CN(C)C)c1C", "effect": 1.003}
{"compound": "CN(C)C(=O)CCC[S+]([O-])Cc1ccc(F)c(F)c1", "stereo": "stereo not given", "effect": 15.86}
{"compound": "COCCN1CCc2cc(C(=O)NC(C)C)c(NCC(C)C)nc2CC1.O=C(O)C(F)(F)F.O=C(O)C(F)(F)F", "effect": "17.01 and -14.66"}
{"compound": "NC(=O)CC1CCN(CC(O)c2ccc(Br)cc2)CC1", "stereo": "stereo not given", "effect": 3.378}
{"compound": "O=C(O)C(F)(F)F.O=S(=O)(C1CC1)N1CC[C@@H](OCC2CC2)[C@@H]1Cc1ccncc1", "effect": 12.78}
{"compound": "CCN(CC)CCn1cc(NC(=O)Nc2ccccc2OC)cn1", "effect": "-8.483 and 7.642"}
{"compound": "Cc1cc(N(C)Cc2snnc2C)nc(-c2cccnc2)n1", "effect": 16.65}
{"compound": "CC(C)Cc1ncc2c(n1)CN(C(=O)Cn1c(=O)oc3ccccc31)C2", "effect": -23.33}
{"compound": "COCC(=O)Nc1ccc(Oc2ccsc2C(=O)O)cc1", "effect": "21.43 and 2.64"}
{"compound": "CC(c1nc(C2CC2)no1)N1CCN(CCN2CCCC2=O)CC1", "stereo": "stereo not given", "effect": "4.62 and -2.906"}
{"compound": "Cc1nc(CN(C)C)cc(N2CCCC(COc3ccc(F)cc3)C2)n1", "stereo": "stereo not given", "effect": 36.91}
{"compound": "CC(C)N(C)[C@@H]1CCN(Cc2nccs2)[C@H]1Cc1ccncc1.O=C(O)C(F)(F)F.O=C(O)C(F)(F)F.O=C(O)C(F)(F)F", "effect": "-25.27 and -6.077"}
{"compound": "CSCCc1n[nH]c2c1CN(S(=O)(=O)c1cn(C)c(C)n1)CC2", "effect": 12.28}
{"compound": "COC(=O)c1ccoc1CN(C1CC1)C1CCS(=O)(=O)C1", "stereo": "stereo not given", "effect": -1.724}
{"compound": "[H][C@@]12C[C@H](C(=O)NC)[C@@]([H])(CN(c3ncc(CC)cn3)C1)O2", "effect": "29.82 and -0.04778"}
{"compound": "COc1ccc(Nc2nc3c(C)nn(C)c3c(=O)n2C)cc1", "effect": -15.45}
{"compound": "O=C(Cc1cccc(F)c1)N1CCCCC1c1ccn2ccnc2n1", "stereo": "stereo not given", "effect": -7.286}
{"compound": "CNc1ncc2c(n1)CN(C1CCCC1)C2=O", "effect": 2.287}
{"compound": "OCC1CCCN1c1cc(NCCNc2cccnn2)ncn1", "stereo": "stereo not given", "effect": -17.2}
{"compound": "[H][C@@]12CCN(C(=O)CCc3csc(N)n3)C[C@@]([H])(CC1)N2C", "effect": -15.49}
{"compound": "CC(C)CC(=O)N1CCN(Cc2csc(-c3ncccn3)n2)CC1", "effect": 14.71}

For reference, 5 entries once more:

{"compound": "CCN1CCOCC2(C1)CN(C(=O)c1c(C)noc1C)CCO2", "stereo": "stereo not given", "effect": 23.64}
{"compound": "COc1ccc(Nc2nc3c(C)nn(C)c3c(=O)n2C)cc1", "effect": -15.45}
{"compound": "Cc1ccc(CNC(=O)CCSCc2csc(C)n2)cn1", "effect": -3.907}
{"compound": "NC(=O)CC1CCN(CC(O)c2ccc(Br)cc2)CC1", "stereo": "stereo not given", "effect": 3.378}
{"compound": "CC(C)N(C)[C@@H]1CCN(Cc2nccs2)[C@H]1Cc1ccncc1.O=C(O)C(F)(F)F.O=C(O)C(F)(F)F.O=C(O)C(F)(F)F", "effect": "-25.27 and -6.077"}

The values are deposited in ChEMBL (CHEMBL3988442, “University of Dundee, Small-Polar-MMV Screening Library” (2021)).